Test results published in article PMC3687523 (Biochemical pharmacology, 2013).

Tested on: rat brain CYP2D
[1] = 40 μg i.c.v. propafenone, 30 mg/kg s.c. codeine

CCCNCC(O)COc1ccccc1C(=O)CCc1ccccc1 (stereo not drawn) [propafenone]
percentage of maximal analgesic effect (%MPE) after codeine, compared to vehicle pretreatment (40 μg i.c.v. propafenone 5 min before 30 mg/kg s.c. codeine, at 20, 30 and 40 min): significantly lower | AUC of analgesia after morphine, compared to vehicle pretreatment (40 μg i.c.v. propafenone, 5 mg/kg s.c. morphine, all time periods): did not result in significantly different | %MPE after morphine, compared to vehicle pretreatment (40 μg i.c.v. propafenone, 5 mg/kg s.c. morphine, all time points): did not result in significantly different %MPE | area under the analgesia-time curve (AUC) 0-30 min after codeine, compared to vehicle pretreatment [1]: significantly lower | area under the analgesia-time curve (AUC) 0-120 min after codeine, compared to vehicle pretreatment [1]: but not for (H) 60-120 min or 0-120 min | area under the analgesia-time curve (AUC) 60-120 min after codeine, compared to vehicle pretreatment [1]: Neither inhibitor resulted in lower AUC
